Measured values taken from PubChem BioAssay AID493014 (National Center for Advancing Translational Sciences (NCATS), 2011).
Some of the results follow. Shown are side measurements of this screen, not its main read-out; they come without a call. Most of these compounds were active or inconclusive in the main read-out, so they are no random draw. Potencies come from curve fits of mixed quality, noted in brackets.

Assay: qHTS Assay to Find Inhibitors of Chronic Active B-Cell Receptor Signaling
Conditions: ABC-DLBCL IkBa-CBG/CBR reporter, luminescence ratio (green luciferase fused to IkBa over red control in TMD8 lymphoma cells), 4 h
In short: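 TMD8 human ABC-DLBCL cells with doxycycline-inducible IκBα–green luciferase fusion and unfused red luciferase, in 0.5% FBS medium; compounds up to 46 uM, 4 h at 37C. Green/red luminescence ratio, filter-overlap corrected, fitted to concentration-response curves.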

[1] = measured here: CBR red luminescence, cell number
[2] = measured here: IkBa-CBG green luminescence

SMILES | AC50 [1] | AC50 [2]
COCCn1c(-c2ccccc2Cl)nc2c(c(=O)c3ccccc3n2C)c1=O | 1.84 µM [rising, partial curve, poor fit] | 
Cc1ccc(-c2cc3ccccc3nc2N2CCOCC2)cc1 | 2.24 µM [rising, partial curve, poor fit] | 
CCCCOc1ccc(-c2nn(-c3ccccc3)cc2C2NC(=O)NC(C)=C2C(=O)OC)cc1 (stereo unspecified) | 3.16 µM [rising, single point] | 
Cc1cc(=O)oc2cc(OCC(=O)Nc3nccs3)ccc12 | 8.91 µM [falling, partial curve] | 
Cc1nc(NC2=NCN(Cc3cccnc3)CN2)nc2ccccc12 | 11.2 µM [falling, partial curve, poor fit] | 
O=C(CSc1nnnn1C1CCCCC1)N1c2ccccc2Sc2ccccc21 | 18.4 µM [falling, single point] | 
Cc1nc(SCC(=O)NCc2ccccc2)c2oc3ccccc3c2n1 | 2.91 µM [rising, single point] | 
N#Cc1ccc(COC(=O)c2cccnc2Cl)cc1 | 10 µM [rising, partial curve, poor fit] | 35.5 µM [falling, partial curve, poor fit]
S=c1[nH]nc(-c2cccc(Cl)c2)n1/N=C/c1ccc(-c2ccccc2Br)o1 | 17.8 µM [rising, single point] | 
O=C(Nc1ccc(F)cc1)Nc1ccc(N2CCCC2)c(S(=O)(=O)Nc2ccccc2Cl)c1 | 3.26 µM [falling, full curve] | 
Cc1ccc2c(c1)N(CC(=O)NCc1ccco1)C(=O)C(C(C)C)O2 (stereo unspecified) | 1.58 µM [rising, single point] | 
COc1ccc(Cl)cc1NC(=O)c1c(NCc2ccc(C)o2)sc2c1CCCCC2 | 35.5 µM [falling, single point] | 
Cc1cccc(N(CC(=O)NC2CCCCC2)C(=O)CCCC(=O)Nc2ccccn2)c1 | 23.1 µM [falling, partial curve] | 
Cc1ccc(S(=O)(=O)c2cnc(-c3ccccc3)nc2N2CCCCC2)cc1 | 1.12 µM [rising, full curve, poor fit] | 
COc1cc([N+](=O)[O-])cc(/C=N/NC(=O)c2cccnc2)c1O | 5.62 µM [falling, full curve] | 4.47 µM [rising, partial curve, poor fit]
COc1ccccc1C(=O)n1nc(-c2cccnc2)nc1N | 1.64 µM [falling, full curve] | 
Cc1cccc(NC(=S)NCc2ccccn2)c1 |  | 25.1 µM [falling, single point]
O=C(Nc1ccccc1C(=O)NC(Cc1ccc(O)cc1)C(=O)O)c1ccccc1 (stereo unspecified) | 20 µM [falling, single point] | 
COc1ccc(C)cc1NC(=O)CN1CCN(c2ccccc2F)CC1 | 29.1 µM [rising, single point] | 
CC(C)C[C@H](CO)Nc1nc(Nc2cccc(Cl)c2)c2ncn(C(C)C)c2n1 | 10 µM [falling, partial curve] | 17.8 µM [rising, single point]
COc1cc2c(C(=O)Nc3ccccc3F)cn(C)c(=O)c2cc1OC | 0.0891 µM [rising, full curve, poor fit] | 

Reformatted: 4 of the compounds above
COCCn1c(-c2ccccc2Cl)nc2c(c(=O)c3ccccc3n2C)c1=O
  AC50 [1]: 1.84 µM [rising, partial curve, poor fit]
Cc1cc(=O)oc2cc(OCC(=O)Nc3nccs3)ccc12
  AC50 [1]: 8.91 µM [falling, partial curve]
Cc1nc(SCC(=O)NCc2ccccc2)c2oc3ccccc3c2n1
  AC50 [1]: 2.91 µM [rising, single point]
Cc1cccc(NC(=S)NCc2ccccn2)c1
  AC50 [2]: 25.1 µM [falling, single point]

Further results:

SMILES | AC50 [1] | AC50 [2]
COc1ccc(CCNS(=O)(=O)c2ccc3c(c2)NC(=O)C(C)S3)cc1OC (stereo unspecified) | 11.2 µM [falling, partial curve, poor fit] | 
COc1ccc(C(=O)Nc2ccc(S(=O)(=O)NC(C)(C)C)cc2)cc1[N+](=O)[O-] | 0.891 µM [rising, partial curve] | 
COc1ccc(N(C(=O)C2CCCCC2)S(=O)(=O)c2cccc3cccnc23)cc1 | 8.91 µM [falling, partial curve] | 
Nc1nc2ccc(NC(=O)c3ccco3)cc2s1 | 15.8 µM [falling, partial curve, poor fit] | 
O=C(CN1C(=O)NC2(CCCCCC2)C1=O)Nc1cccc(F)c1 | 18.4 µM [falling, single point] | 
CCOc1ccc(/C=N/NC(=O)c2ccccc2Cl)cc1CN1CC2CC(C1)c1cccc(=O)n1C2 (stereo unspecified) | 23.1 µM [falling, partial curve, poor fit] | 
C=CCN(C(=O)CCC(=O)Nc1cc(C)on1)C(C(=O)NC(C)(C)C)c1cccc(OC)c1OC (stereo unspecified) | 3.55 µM [rising, partial curve, poor fit] | 
O=C(Nc1ccc(N2CCN(C(=O)c3ccccc3)CC2)c(Cl)c1)c1cccnc1 | 14.6 µM [falling, single point] | 
c1ccc(CNc2c3ccccc3nc3ccccc23)cc1 | 14.1 µM [falling, single point] | 
O=C(O)C1C2C=CC(O2)C1C(=O)Nc1ccc2c(c1)OCCO2 (stereo unspecified) | 35.5 µM [falling, single point] | 
CCOC(=O)c1ccc(N=NN(C)C)cc1 | 1.12 µM [rising, partial curve, poor fit] | 
C[C@@H](NC(=O)[C@@H]1Cc2ccccc2CN1C(=O)OC(C)(C)C)C(=O)NC1CCCCC1 | 2.82 µM [falling, partial curve] | 
O=C(Nc1ccccc1)c1nnsc1S(=O)(=O)c1ccc(Cl)cc1 | 7.94 µM [falling, partial curve] | 12.6 µM [rising, partial curve, poor fit]
CCOc1ccc(S(=O)(=O)Nc2cc(SCC(=O)O)c(O)c3ccccc23)cc1 | 35.5 µM [falling, single point] | 
COc1ccc(OCc2cccc(C(=O)NN)c2)cc1 | 7.08 µM [falling, full curve] | 
Cc1ccsc1C(=O)OCc1nc2ccccc2c(=O)[nH]1 | 16.4 µM [falling, single point] | 
COc1ccc(-n2nc(C(=O)NCC(=O)N3CCOCC3)c3ccccc3c2=O)cc1Cl | 12.6 µM [rising, partial curve, poor fit] | 
CCOC(=O)c1cc(-c2csc(-c3cccc(Cl)c3)n2)on1 | 3.16 µM [falling, partial curve, poor fit] | 
C=CCN=C1N[C@@H](c2cccc(C(F)(F)F)c2)C(C(=O)OC)=C(C)N1CC | 35.5 µM [falling, single point] | 
O=C(O)CC/C(=N/NC(=O)c1cccs1)c1ccccc1 | 14.6 µM [falling, partial curve, poor fit] | 
CCN(CC)CCN1C(=O)C(O)=C(C(=O)c2cccs2)C1c1ccccn1 (stereo unspecified) | 29.1 µM [falling, single point] | 

3 entries from above, sorted by SMILES length, smallest number first.
SMILES | AC50 [1] | AC50 [2]
Cc1ccsc1C(=O)OCc1nc2ccccc2c(=O)[nH]1 | 16.4 µM [falling, single point] | 
CCOC(=O)c1cc(-c2csc(-c3cccc(Cl)c3)n2)on1 | 3.16 µM [falling, partial curve, poor fit] | 
CCN(CC)CCN1C(=O)C(O)=C(C(=O)c2cccs2)C1c1ccccn1 (stereo unspecified) | 29.1 µM [falling, single point] | 

(more compounds)

SMILES | AC50 [1] | AC50 [2]
O=C(COc1ccccc1)N(Cc1ccco1)C1CCS(=O)(=O)C1 (stereo unspecified) | 3.98 µM [falling, partial curve, poor fit] | 
O=S(=O)(Nc1cccc(S(=O)(=O)N2CCOCC2)c1)c1ccc2c(c1)OCCO2 | 0.2 µM [falling, full curve, poor fit] | 
Fc1ccc(C(Nc2ccccn2)c2c[nH]c3ccccc23)cc1 (stereo unspecified) | 8.91 µM [falling, partial curve, poor fit] | 
COc1cc(OC)cc(-c2nnc(SCc3cccc(C(=O)O)c3)o2)c1 | 8.2 µM [falling, partial curve] | 
Cc1ccc(SCc2nc3ccccc3[nH]2)cc1 | 12.6 µM [falling, single point] | 
O=C(CCC1N=C2c3ccccc3N=C(SCc3ccc(F)cc3)N2C1=O)NCc1cccs1 (stereo unspecified) | 25.1 µM [falling, single point] | 
COc1ccc(/C=C2\CCC(C3CCCC3)C2=O)cc1Cn1nc(C)cc1C (stereo unspecified) | 0.517 µM [rising, full curve, poor fit] | 
O=C(Nc1cccc2ccccc12)c1ccc([N+](=O)[O-])cc1 | 1 µM [falling, full curve] | 
CCN(C(=O)COC(=O)c1ccc([N+](=O)[O-])o1)c1cccc2ccccc12 | 3.66 µM [falling, partial curve, poor fit] | 
CN(C)S(=O)(=O)c1ccc(Cl)c(NC(=O)CSc2nnnn2-c2ccc(O)cc2)c1 | 15.8 µM [falling, partial curve, poor fit] | 
Cc1ccc(C)n1-c1sc2c(c1C#N)CCC(C)C2 (stereo unspecified) | 0.164 µM [falling, full curve, poor fit] | 
CSc1c(C#N)c(N)nc2sc(C(=O)c3ccc(Cl)c(Cl)c3)c(N)c12 | 0.282 µM [falling, full curve, poor fit] | 
O=C(c1ccc(F)cc1)N(C(=O)c1ccc(F)cc1)c1ncccn1 | 35.5 µM [falling, single point] | 
CCOC(=O)CC(NS(=O)(=O)c1ccc2[nH]c3c(c2c1)CCCC3)c1ccccc1Cl (stereo unspecified) | 12.6 µM [falling, partial curve, poor fit] | 
O=C(NCC(c1ccco1)N1CCN(c2ccc(F)cc2)CC1)c1ccco1 (stereo unspecified) | 25.9 µM [rising, single point] | 
CC(=O)Nc1ccc(OC(=O)c2ccc(Br)c([N+](=O)[O-])c2)cc1 | 7.94 µM [falling, partial curve, poor fit] | 
Cn1c(C=O)c(C#Cc2ccccc2)c2ccccc21 | 20.6 µM [rising, single point] | 
Fc1ccc(-c2nnc(-c3ccc(Cl)cc3Cl)o2)cc1 | 0.092 µM [rising, full curve, poor fit] | 
CCc1ccc(OCc2n[nH]c(=S)n2C(C)CCCC(C)C)cc1 (stereo unspecified) | 35.5 µM [falling, single point] | 
S=C(NCCc1ccc(Cl)cc1)Nc1ccc(Cl)cc1Cl | 0.103 µM [falling, full curve, poor fit] | 
